{
  "source": "PubChem BioAssay AID1347137",
  "about": "(National Center for Advancing Translational Sciences (NCATS), 2019)",
  "assay": "qHTS of pediatric cancer cell lines to identify multiple opportunities for drug repurposing: Orthogonal 3D viability screen for Daoy cells",
  "source_text": "Drug repurposing or repositioning has been offered as a strategy for drug development in oncology programs. This approach has special potential for childhood cancers and other rare or orphan diseases, where the expected return on new drug development has been a disincentive to pharmaceuticals. […] In this project we exploit the poly-pharmacology of drugs to discover new indications via phenotypic screening of a panel of 19 well-characterized cell lines derived from solid tumors seen in children and adolescents. The goal is to identify approved drugs with previously unrecognized anticancer properties that has the potential to reveal new mechanisms and biological processes involved in carcinogenesis or drug resistance. We employed a titration-based paradigm (quantitative high-throughput screening or qHTS), where all compounds were tested at multiple concentrations for their effect on cell viability. […] Assay Submitter: Nathalia J. Martinez, National Center for Advancing Translational Sciences, National Institutes of Health, Rockville, MD, USA; email: natalia.martinez@nih.gov Shen, M et al. Quantitative high-throughput phenotypic screening of pediatric cancer cell lines identifies multiple opportunities for drug repurposing. […]",
  "note": "The shares of active, inactive and inconclusive entries below differ from those in the screen. Where a call stands in place of a potency, no number is given. Where the call is inconclusive, the potency comes from a doubtful curve fit. Active and inactive are the calls of the source. Calls follow the shape of the dose curve; as a rule, active = well fitted inhibition curve with a large enough effect; inconclusive = small, poorly fitted or top-dose-only effect; inactive = no such curve, though single readings can be large or run the other way.",
  "data": [
    {"smiles": "COC(=O)C1=CCCN(C)C1", "values": [
      {"measurement": "Potency", "result": "inactive"}
    ]},
    {"smiles": "C[C@@H]1C[C@@H]([C@H](O)CC2CC(=O)NC(=O)C2)C(=O)[C@@H](C)C1", "values": [
      {"measurement": "Potency", "result": "inconclusive: 511 nM [inhibitor, full curve]"}
    ]}
  ]
}
